Among the data in article PMC7862700 are binding signal values, retold here.

Protein sequences, listed by entry. Tags and fused reporters are not part of them. Lines headed by an entry give the natural chain unless they say otherwise; changes in a name come on top.
UniProt P32519: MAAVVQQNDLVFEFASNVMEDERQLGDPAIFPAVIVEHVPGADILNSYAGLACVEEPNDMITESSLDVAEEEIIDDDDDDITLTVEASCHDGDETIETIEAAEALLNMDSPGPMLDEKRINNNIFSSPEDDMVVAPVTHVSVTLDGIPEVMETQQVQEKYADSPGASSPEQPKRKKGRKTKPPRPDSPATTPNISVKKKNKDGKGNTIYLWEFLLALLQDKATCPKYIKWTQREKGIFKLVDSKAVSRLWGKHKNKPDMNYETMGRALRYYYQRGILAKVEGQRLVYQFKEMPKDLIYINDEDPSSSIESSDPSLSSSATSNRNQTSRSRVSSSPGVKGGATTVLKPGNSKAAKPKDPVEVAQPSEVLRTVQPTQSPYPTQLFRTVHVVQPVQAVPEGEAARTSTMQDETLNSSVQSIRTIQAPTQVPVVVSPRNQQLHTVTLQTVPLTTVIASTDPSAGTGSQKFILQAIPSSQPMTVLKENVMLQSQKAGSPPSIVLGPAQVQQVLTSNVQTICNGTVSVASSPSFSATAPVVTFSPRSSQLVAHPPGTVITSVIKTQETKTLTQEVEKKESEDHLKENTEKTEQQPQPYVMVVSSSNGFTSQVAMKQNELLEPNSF

Holding throughout (assay): DAPPL (digital affinity profiling via proximity ligation, sequencing)
Holding throughout (settings): 10 mM Tris-HCl pH 7.5, 50 mM NaCl, 1 mM DTT, 4% glycerol, room temperature, 30 min; GST-TFs on glutathione beads, 16-mer random dsDNA library, 0.1% …; high values mean tight binding; double strand, one strand shown; scale: fold enrichment (6-mer frequency, TF over GST control)

The target in one experiment is T1, ETV4 (UniProt P43268).
T1 sequence: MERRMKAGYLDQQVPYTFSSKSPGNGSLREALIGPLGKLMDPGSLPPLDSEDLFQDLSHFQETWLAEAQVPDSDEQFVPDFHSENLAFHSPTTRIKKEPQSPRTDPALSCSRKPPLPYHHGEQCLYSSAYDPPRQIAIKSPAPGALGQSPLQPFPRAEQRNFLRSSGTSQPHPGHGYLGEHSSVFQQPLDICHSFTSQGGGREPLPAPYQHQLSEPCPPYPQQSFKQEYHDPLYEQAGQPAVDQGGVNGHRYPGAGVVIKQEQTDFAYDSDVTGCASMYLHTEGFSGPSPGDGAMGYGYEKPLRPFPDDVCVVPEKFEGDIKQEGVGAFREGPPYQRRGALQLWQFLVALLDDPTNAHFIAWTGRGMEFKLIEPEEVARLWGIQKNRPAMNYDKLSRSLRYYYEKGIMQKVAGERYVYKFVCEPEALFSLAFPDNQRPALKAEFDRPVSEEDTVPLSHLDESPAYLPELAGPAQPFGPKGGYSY

The next experiment has as its target T2, ERF (UniProt P50548).
T2 sequence: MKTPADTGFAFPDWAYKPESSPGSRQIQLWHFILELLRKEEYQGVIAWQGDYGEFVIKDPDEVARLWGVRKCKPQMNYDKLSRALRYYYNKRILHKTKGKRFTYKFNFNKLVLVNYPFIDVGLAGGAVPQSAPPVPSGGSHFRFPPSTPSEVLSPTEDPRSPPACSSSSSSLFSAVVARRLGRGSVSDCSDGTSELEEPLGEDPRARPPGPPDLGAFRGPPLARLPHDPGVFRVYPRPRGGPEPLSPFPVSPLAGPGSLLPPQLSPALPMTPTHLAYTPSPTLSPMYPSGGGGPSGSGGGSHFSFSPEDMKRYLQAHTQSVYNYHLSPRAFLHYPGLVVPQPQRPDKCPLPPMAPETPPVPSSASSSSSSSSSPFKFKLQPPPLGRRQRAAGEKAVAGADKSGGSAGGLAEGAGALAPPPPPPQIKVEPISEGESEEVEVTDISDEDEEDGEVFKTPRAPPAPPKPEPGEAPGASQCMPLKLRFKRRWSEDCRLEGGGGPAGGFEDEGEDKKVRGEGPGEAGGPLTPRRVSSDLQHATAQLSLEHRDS

The target in another experiment is ELF1 (UniProt P32519).

The list shows a part of the results, in another mix than the full data. For part of these data: At the low end of the ranking the order means little. Some of the results follow. For part of these data: The source does not settle which construct or isoform was used.

Consider CGCGCC, for which the binding signal in the experiment with ETV4 and in the experiment with ERF was 1.1 in each case.

Take CACTAC: the binding signal stood at 1.25 with ETV4 and 1.33 in the experiment with ERF.

Consider CACTAT, for which the values for the binding signal in the experiment with ETV4 and with ERF were 1.23 and 1.2, respectively.

Regarding GCACAT, the binding signal was 1.19 with ETV4 and 1.2 with ERF.

As to TCCTTC, the binding signal in the experiment with ETV4 is 2.17; in the experiment with ERF, 1.95.

Take TCGAGC: the figures for the binding signal with ELF1, in the experiment with ETV4 and with ERF were 0.962, 1.03 and 1.03, respectively.

Take ACACCG: the figures for the binding signal with ELF1, with ETV4 and in the experiment with ERF were 0.992, 1.09 and 1, respectively.

Consider TCCTGG, for which the binding signal with ETV4 is 1.74; with ERF, 1.43.

Take CTTTGA: the binding signal turned out to be 1.26 in the experiment with ELF1, 1.31 with ETV4 and 1.18 in the experiment with ERF.

For GATTGC, the binding signal was determined as 0.993 with ELF1, 0.977 in the experiment with ETV4 and 1.02 in the experiment with ERF.

On to CGTCAT, for which the binding signal with ELF1 was found to be 0.967; with ETV4 it was 0.911; with ERF it was 0.97.

With CAGATG, the binding signal in the experiment with ETV4 was 1.01; with ERF it was 1.11.

Consider TCTGTG, for which the results for the binding signal with ELF1, in the experiment with ETV4 and with ERF were 1.12, 1.25 and 1.15, respectively.

Take GAATAT: the binding signal is 1.08 with ETV4 and 0.995 with ERF.

In the case of ATTCTT, the binding signal with ELF1 was 1.51; in the experiment with ETV4, 1.4; in the experiment with ERF, 1.3.

As for ATTCAA, the binding signal with ETV4 came to 1.27; with ERF it was 1.38.

Take CTGGGC: the binding signal is 1.24 in the experiment with ELF1, 1.13 with ETV4 and 0.987 with ERF.

On to CTTCCG, for which the binding signal was determined as 7.37 with ELF1, 8.26 with ETV4 and 6.13 with ERF.

Turning to TCATCT, the values for the binding signal with ELF1, with ETV4 and with ERF were 1.3, 1.17 and 1.21, respectively.

Regarding TGTATG, the binding signal with ELF1 was found to be 1.23; with ETV4, 1.17; in the experiment with ERF it was 1.31.

TCTCTC: the binding signal was 1.35 with ELF1, 1.36 with ETV4 and 1.31 with ERF.

On to GACTTC, for which the values for the binding signal with ETV4 and with ERF were 2.71 and 2.25, respectively.

As for TTAAGG, the binding signal was found to be 1.04 with ETV4 and 1.16 with ERF.

As to AATCCG, the figures for the binding signal in the experiment with ETV4 and in the experiment with ERF were 1.54 and 1.5, respectively.

Regarding GCTCAT, the results for the binding signal with ELF1, with ETV4 and with ERF were 1.36, 1.23 and 1.31, respectively.

For GCCCCA, the binding signal with ETV4 turned out to be 1.02; with ERF, 0.934.

For CACCGG, the binding signal worked out at 1.09 with ELF1, 1.27 in the experiment with ETV4 and 1.08 in the experiment with ERF.

Regarding TGCTTA, the binding signal with ELF1 was 1.13; with ETV4, 1.11; with ERF it was 1.1.

TTGGTT: the binding signal in the experiment with ETV4 was 1.35; with ERF, 1.43.

Consider AGTCCT, for which the binding signal with ELF1 stood at 0.989; with ETV4, 1.04; with ERF, 0.887.

In the case of TGGCCC, the values for the binding signal in the experiment with ETV4 and with ERF were 1.11 and 0.956, respectively.

As for ACCTCA, the binding signal with ELF1, in the experiment with ETV4 and with ERF was 1.23 in each case.

For the sequence GAACTA, the binding signal with ETV4 is 1.3; in the experiment with ERF, 1.25.

With GTTTTA, the values for the binding signal with ETV4 and in the experiment with ERF were 1.06 and 1.2, respectively.

Take TCGATA: the binding signal with ELF1 was determined as 1.11; in the experiment with ETV4, 1.1; in the experiment with ERF it was 1.24.

On to GGAAAT, for which the figures for the binding signal with ELF1 and with ETV4 were 2.39 and 2.67, respectively.

TGGATA: the binding signal with ELF1 came to 0.984; with ETV4 it was 1.06; with ERF, 1.

Regarding TTCTGA, the binding signal in the experiment with ELF1 was 1.27; in the experiment with ETV4 it was 1.33.

As to CATTTT, the binding signal with ELF1 amounted to 1.18; with ETV4, 1.14.

For the sequence TGTCCC, the results for the binding signal with ELF1 and with ETV4 were 1.28 and 1.46, respectively.

For the sequence TTTATC, the binding signal with ELF1 stood at 1.21; with ETV4, 1.14.

Turning to GCTAAG, the binding signal turned out to be 0.988 with ELF1, 0.977 with ETV4 and 0.874 with ERF.

As for CTGCTT, the binding signal in the experiment with ELF1 was determined as 1.65; with ETV4 it was 1.67.

On to TGTTGA, for which the binding signal with ELF1 was 1.16; with ETV4, 1.08; in the experiment with ERF it was 1.13.

For AATTTG, the binding signal in the experiment with ELF1 was determined as 1.26; with ETV4, 1.32.

For TTCCGG, the binding signal with ELF1 came out at 5.41; in the experiment with ETV4 it was 6.35.

Regarding CCACCT, the binding signal with ELF1 was determined as 1.15; with ETV4, 1.17.

Take CTCATA: the binding signal with ELF1 stood at 1.38; with ETV4 it was 1.45.
